Laboratory results as given in patent US20240076380A1, “DEVICE AND METHODS FOR RAPIDLY SCREENING AND TREATING CLINICAL CANCER PATIENTS WITH IMMUNOREGULATORY DRUGS” (Shanghai Lide Biotech Co., Ltd., priority 2022, published 2024).
For at least one compound, name, drawing or mass did not settle the structure.

Test system: acute myeloid leukemia (AML) patient #123
Test: Clinical response of AML patient #123
Format: in vivo, human

Structure (SMILES): CC1(C)CCC(CN2CCN(c3ccc(C(=O)NS(=O)(=O)c4ccc(NCC5CCOCC5)c([N+](=O)[O-])c4)c(Oc4cnc5[nH]ccc5c4)c3)CC2)=C(c2ccc(Cl)cc2)C1 [Venetoclax]
- clinical response of the patient: poor clinical response
